Laboratory results taken from article PMC5792032.
No constants are given. Whether binding was seen depends on the method and setting. In cells and extracts the contact can be indirect. A result given as binding can be weak or reduced; the word gives no strength.

Key:
Experiment in all cases: pull-down; Strep-Tactin purification of NS5A-OST from Huh7.5 cells electroporated with mJFH1-5A-OST RNA; bound resin blotted with anti-NS5A, anti-DGAT1 or anti-Rab18
[1] = target: NS5A-OST (JFH-1) P145A (hepatitis C virus, genotype 2a, JFH-1)
[2] = target: NS5A-OST (JFH-1) P35A (hepatitis C virus, genotype 2a, JFH-1)
[3] = target: NS5A-OST (JFH-1) V67A (hepatitis C virus, genotype 2a, JFH-1)

Measured: binding

B1: diacylglycerol acyltransferase-1 (protein, UniProt O75907 1-488)
chain: MGDRGSSRRRRTGSRPSSHGGGGPAAAEEEVRDAAAGPDVGAAGDAPAPAPNKDGDAGVGSGHWELRCHRLQDSLFSSDSGFSNYRGILNWCVVMLILSNARLFLENLIKYGILVDPIQVVSLFLKDPYSWPAPCLVIAANVFAVAAFQVEKRLAVGALTEQAGLLLHVANLATILCFPAAVVLLVESITPVGSLLALMAHTILFLKLFSYRDVNSWCRRARAKAASAGKKASSAAAPHTVSYPDNLTYRDLYYFLFAPTLCYELNFPRSPRIRKRFLLRRILEMLFFTQLQVGLIQQWMVPTIQNSMKPFKDMDYSRIIERLLKLAVPNHLIWLIFFYWLFHSCLNAVAELMQFGDREFYRDWWNSESVTYFWQNWNIPVHKWCIRHFYKPMLRRGSSKWMARTGVFLASAFFHEYLVSVPLRMFRLWAFTGMMAQIPLAWFVGRFFQGNYGNAAVWLSLIIGQPIAVLMYVHDYYVLNYEAPAAEA
binds: [1] | [2] | [3]
